# These are yes or no findings as the source states them, for the method shown. In cells and extracts the contact can be indirect. These calls come from enrichment with a bait or labelling near it, and not all partners need be listed.
# By UniProt entry, the sequences of proteins in these tests, tags left out.
# UniProt P31146: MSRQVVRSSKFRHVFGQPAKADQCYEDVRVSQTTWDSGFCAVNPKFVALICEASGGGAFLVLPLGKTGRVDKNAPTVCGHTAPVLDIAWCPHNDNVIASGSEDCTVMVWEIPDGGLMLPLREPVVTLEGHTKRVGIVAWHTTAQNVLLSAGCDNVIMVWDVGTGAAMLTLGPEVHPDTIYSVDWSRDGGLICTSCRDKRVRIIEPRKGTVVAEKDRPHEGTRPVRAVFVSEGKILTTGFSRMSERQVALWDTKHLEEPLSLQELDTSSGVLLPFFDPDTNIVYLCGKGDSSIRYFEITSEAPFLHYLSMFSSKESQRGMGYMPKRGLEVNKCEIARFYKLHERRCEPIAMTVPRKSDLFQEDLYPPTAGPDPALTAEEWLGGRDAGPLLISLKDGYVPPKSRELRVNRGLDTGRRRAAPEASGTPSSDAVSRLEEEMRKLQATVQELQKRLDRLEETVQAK
# B1: TRIM4, endogenous in MDA-MB-231 cells (protein, UniProt Q9C037 1-500)
# chain: MEAEDIQEELTCPICLDYFQDPVSIECGHNFCRGCLHRNWAPGGGPFPCPECRHPSAPAALRPNWALARLTEKTQRRRLGPVPPGLCGRHWEPLRLFCEDDQRPVCLVCRESQEHQTHAMAPIDEAFESYRTGNFDIHVDEWKRRLIRLLLYHFKQEEKLLKSQRNLVAKMKKVMHLQDVEVKNATQWKDKIKSQRMRISTEFSKLHNFLVEEEDLFLQRLNKEEEETKKKLNENTLKLNQTIASLKKLILEVGEKSQAPTLELLQNPKEVLTRSEIQDVNYSLEAVKVKTVCQIPLMKEMLKRFQVAVNLAEDTAHPKLVFSQEGRYVKNTASASSWPVFSSAWNYFAGWRNPQKTAFVERFQHLPCVLGKNVFTSGKHYWEVESRDSLEVAVGVCREDVMGITDRSKMSPDVGIWAIYWSAAGYWPLIGFPGTPTQQEPALHRVGVYLDRGTGNVSFYSAVDGVHLHTFSCSSVSRLRPFFWLSPLASLVIPPVTDRK
# Molecular target: Coronin 1A (CORO1A), endogenous in MDA-MB-231 cells (human (endogenous in MDA-MB-231)) (UniProt P31146)
# Assay: affinity purification with mass spectrometry; MDA-MB-231 cells, control or AB (0.2 uM, 24 h); lysate incubated with anti-CORO1A overnight at 4°C, Protein A beads, gel bands analysed by LC-MS/MS
binder,measurement,value
B1,binding,binds

# Reference: article PMC11610137, “TRIM4 enhances small-molecule-induced neddylated-degradation of CORO1A for triple negative breast cancer therapy” (Theranostics, 2024)
